# Laboratory results from the supplement of paper PMC10849652.
# Chains of the proteins cited; added tags and fusions are not shown. Lines headed by an entry give the natural chain unless they say otherwise; changes in a name come on top.
# UniProt Q96BQ5: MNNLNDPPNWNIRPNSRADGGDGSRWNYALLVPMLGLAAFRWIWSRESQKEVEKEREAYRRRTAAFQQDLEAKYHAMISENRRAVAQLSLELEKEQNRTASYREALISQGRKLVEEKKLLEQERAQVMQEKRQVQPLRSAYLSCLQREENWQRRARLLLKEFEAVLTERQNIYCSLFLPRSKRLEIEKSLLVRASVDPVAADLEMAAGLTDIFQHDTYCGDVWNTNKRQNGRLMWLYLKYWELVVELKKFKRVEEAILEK
# UniProt A6NKD9: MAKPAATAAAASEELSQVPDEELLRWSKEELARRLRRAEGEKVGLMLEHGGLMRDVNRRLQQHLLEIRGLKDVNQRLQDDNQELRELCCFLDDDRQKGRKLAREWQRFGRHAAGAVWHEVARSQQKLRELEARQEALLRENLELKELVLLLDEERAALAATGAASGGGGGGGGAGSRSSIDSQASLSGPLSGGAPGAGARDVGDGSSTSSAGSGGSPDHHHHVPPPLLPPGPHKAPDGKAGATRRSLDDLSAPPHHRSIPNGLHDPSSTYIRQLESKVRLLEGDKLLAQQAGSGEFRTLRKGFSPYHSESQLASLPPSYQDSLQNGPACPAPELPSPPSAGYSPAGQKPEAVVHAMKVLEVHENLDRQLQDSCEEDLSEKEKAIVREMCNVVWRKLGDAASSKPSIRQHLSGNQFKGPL
# UniProt Q96CT7: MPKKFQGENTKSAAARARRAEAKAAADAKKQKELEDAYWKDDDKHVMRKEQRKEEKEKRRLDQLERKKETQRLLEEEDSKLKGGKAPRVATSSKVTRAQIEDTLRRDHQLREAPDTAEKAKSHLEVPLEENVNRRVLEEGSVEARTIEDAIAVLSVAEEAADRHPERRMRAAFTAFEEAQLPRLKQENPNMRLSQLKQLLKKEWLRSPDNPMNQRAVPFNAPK
# UniProt Q9Y5K6, whole entry, looked up: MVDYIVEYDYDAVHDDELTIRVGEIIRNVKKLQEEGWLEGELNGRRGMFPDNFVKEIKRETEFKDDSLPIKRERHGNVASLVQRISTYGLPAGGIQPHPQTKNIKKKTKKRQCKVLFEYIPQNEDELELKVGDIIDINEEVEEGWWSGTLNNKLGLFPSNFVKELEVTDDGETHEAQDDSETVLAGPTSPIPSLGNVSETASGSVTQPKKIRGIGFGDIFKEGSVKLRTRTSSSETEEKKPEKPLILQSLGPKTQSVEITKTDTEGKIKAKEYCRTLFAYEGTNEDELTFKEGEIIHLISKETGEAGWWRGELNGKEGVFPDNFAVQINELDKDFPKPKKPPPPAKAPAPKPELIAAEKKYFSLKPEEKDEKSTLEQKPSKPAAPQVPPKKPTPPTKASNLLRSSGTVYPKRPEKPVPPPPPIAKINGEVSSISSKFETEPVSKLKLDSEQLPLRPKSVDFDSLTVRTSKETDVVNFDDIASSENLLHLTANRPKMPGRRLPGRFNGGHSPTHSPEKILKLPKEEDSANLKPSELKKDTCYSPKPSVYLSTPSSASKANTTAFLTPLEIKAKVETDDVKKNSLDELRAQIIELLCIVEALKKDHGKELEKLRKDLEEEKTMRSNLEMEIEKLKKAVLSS
# UniProt O15446, whole entry, looked up: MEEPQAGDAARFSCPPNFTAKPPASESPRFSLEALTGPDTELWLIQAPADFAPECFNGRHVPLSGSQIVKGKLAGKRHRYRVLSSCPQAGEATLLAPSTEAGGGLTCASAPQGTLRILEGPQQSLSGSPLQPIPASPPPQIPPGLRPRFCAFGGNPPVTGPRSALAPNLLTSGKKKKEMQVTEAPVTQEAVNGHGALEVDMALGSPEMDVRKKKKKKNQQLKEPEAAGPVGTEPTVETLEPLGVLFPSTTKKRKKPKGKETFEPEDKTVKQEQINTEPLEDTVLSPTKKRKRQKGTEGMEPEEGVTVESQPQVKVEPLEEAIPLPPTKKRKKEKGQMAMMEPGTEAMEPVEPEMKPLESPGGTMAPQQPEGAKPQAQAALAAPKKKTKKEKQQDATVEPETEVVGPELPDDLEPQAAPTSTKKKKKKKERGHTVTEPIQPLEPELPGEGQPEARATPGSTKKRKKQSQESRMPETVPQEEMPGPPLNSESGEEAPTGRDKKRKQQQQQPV
# UniProt Q9ULG6: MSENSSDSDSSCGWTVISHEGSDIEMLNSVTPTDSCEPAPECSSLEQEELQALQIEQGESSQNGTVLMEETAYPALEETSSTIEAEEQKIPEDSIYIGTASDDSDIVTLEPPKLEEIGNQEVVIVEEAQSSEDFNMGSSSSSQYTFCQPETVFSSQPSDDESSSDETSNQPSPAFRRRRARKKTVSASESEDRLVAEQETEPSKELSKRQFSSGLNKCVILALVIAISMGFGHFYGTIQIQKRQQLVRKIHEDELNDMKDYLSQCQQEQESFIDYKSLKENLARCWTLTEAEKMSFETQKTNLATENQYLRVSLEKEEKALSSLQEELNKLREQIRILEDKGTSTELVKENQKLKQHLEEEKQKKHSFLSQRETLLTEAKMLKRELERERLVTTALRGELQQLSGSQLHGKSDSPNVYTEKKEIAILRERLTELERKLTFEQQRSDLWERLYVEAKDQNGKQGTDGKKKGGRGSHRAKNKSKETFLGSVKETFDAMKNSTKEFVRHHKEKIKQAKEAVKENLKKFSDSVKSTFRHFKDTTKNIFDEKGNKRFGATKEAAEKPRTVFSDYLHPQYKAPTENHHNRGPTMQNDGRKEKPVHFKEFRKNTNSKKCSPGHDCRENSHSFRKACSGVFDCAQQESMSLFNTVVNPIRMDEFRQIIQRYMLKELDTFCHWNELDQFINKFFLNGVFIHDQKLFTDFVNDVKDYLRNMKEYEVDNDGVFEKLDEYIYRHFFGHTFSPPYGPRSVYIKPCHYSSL
# UniProt Q8N163, whole entry, looked up: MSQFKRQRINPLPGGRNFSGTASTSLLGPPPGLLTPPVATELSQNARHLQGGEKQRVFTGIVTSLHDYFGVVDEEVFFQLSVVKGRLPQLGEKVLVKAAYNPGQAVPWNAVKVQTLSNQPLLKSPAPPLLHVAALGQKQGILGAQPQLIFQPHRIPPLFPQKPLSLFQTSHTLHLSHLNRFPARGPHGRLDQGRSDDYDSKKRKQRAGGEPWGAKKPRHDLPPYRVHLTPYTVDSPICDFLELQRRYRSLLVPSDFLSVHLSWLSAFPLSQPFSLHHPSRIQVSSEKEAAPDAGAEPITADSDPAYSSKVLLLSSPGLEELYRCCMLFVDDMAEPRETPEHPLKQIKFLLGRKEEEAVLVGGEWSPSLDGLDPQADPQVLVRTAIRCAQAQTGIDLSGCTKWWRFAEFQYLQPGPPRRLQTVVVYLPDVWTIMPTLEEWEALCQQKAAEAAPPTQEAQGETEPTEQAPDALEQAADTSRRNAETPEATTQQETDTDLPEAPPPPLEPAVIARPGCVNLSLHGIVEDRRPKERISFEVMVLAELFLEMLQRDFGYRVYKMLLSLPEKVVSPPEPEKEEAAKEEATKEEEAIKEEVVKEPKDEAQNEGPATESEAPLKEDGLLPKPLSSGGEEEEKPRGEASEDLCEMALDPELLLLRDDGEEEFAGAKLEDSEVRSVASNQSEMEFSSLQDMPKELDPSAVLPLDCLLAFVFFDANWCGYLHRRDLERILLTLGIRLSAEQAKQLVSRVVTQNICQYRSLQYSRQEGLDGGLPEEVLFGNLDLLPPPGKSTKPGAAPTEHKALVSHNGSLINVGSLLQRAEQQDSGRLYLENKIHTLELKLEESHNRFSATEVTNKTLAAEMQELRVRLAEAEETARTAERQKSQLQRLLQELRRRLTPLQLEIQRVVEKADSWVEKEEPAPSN
# UniProt Q14790: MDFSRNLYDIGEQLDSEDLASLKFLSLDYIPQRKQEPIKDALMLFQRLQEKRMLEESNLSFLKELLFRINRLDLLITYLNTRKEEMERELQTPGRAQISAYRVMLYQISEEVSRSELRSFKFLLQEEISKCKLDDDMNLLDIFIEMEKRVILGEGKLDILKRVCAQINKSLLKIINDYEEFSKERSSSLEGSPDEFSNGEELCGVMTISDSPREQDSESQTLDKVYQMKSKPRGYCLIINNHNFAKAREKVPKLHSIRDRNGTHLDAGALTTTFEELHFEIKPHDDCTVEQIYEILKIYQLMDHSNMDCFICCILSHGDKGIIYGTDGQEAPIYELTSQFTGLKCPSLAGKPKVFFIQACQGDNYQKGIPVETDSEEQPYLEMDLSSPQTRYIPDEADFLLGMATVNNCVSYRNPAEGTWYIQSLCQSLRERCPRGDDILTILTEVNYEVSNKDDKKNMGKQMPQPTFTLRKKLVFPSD
# UniProt Q6PK04: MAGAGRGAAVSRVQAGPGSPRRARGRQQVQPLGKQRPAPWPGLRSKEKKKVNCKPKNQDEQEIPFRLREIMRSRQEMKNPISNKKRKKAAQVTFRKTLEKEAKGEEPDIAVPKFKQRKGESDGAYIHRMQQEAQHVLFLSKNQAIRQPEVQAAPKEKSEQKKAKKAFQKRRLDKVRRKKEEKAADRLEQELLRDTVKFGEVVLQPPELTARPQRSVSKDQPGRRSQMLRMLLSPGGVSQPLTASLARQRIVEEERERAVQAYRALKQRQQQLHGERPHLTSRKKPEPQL
# UniProt P08962, whole entry, looked up: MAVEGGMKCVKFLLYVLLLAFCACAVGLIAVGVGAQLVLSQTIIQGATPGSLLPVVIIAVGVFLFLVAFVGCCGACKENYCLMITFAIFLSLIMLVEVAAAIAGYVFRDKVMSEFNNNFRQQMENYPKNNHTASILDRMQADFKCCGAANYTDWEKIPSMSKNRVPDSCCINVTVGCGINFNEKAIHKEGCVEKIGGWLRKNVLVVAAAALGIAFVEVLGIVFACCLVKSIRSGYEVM
# UniProt Q8IWP9: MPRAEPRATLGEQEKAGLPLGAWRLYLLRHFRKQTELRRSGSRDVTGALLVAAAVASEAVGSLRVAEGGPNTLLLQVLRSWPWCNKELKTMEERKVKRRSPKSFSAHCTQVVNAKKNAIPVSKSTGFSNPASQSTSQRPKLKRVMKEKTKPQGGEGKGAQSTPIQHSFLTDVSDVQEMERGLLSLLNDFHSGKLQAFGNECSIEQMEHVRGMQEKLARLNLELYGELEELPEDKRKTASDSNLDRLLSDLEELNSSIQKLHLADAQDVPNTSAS
# UniProt P16152: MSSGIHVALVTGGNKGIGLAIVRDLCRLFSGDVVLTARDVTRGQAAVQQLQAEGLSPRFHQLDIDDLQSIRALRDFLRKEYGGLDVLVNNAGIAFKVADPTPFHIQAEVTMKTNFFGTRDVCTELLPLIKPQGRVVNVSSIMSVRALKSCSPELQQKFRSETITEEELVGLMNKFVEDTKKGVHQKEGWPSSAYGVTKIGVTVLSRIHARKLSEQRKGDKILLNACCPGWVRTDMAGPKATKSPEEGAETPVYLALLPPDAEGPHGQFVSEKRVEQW
# UniProt O75909: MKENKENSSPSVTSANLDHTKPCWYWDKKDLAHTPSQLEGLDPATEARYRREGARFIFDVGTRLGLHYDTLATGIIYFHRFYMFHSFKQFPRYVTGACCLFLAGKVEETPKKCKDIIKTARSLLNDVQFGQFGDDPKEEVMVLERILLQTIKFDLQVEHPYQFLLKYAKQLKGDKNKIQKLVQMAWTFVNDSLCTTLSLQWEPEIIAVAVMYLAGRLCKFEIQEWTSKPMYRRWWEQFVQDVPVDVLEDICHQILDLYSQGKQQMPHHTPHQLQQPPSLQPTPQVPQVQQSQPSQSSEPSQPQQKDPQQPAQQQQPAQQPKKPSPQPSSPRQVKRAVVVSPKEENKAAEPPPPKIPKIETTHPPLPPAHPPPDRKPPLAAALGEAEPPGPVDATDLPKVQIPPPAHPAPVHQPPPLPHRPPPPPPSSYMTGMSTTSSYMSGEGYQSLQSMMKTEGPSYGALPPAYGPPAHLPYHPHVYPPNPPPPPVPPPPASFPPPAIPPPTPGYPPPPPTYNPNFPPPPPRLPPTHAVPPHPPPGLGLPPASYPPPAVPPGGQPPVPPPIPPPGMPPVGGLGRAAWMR
# UniProt Q8WUD4: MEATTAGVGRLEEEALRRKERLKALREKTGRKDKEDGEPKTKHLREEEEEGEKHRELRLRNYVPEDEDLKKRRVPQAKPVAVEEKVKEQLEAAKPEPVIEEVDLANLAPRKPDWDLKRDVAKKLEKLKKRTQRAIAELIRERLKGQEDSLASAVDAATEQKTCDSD
# UniProt Q99832: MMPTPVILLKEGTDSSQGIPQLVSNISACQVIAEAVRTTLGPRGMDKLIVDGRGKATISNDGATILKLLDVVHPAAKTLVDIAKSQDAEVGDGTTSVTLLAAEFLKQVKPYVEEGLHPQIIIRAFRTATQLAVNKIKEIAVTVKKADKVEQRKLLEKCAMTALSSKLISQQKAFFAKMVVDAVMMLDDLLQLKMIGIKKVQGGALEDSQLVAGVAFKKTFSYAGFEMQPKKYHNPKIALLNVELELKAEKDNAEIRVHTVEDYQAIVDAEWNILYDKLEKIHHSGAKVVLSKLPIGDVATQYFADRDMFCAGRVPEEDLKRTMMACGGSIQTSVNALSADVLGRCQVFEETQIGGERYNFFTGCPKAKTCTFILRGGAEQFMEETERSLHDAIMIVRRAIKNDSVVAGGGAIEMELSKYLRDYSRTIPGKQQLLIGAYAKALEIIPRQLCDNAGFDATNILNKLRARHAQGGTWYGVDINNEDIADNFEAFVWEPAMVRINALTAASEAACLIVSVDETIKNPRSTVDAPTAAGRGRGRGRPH
# The list shows a part of the results.
# Legend:
# Test in all cases: log2 fold change, soluble protein after heating vs DMSO (PISA); higher = thermal stabilisation; K562 lysate, 10 uM; active = over 0.2 and 3.5 SD of the protein, either way, in both replicates (recomputed)
# lapatinib = compound: CS(=O)(=O)CCNCc1ccc(-c2ccc3ncnc(Nc4ccc(OCc5cccc(F)c5)c(Cl)c4)c3c2)o1 [lapatinib]
# Outline: (§1)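 Thermal stability, expressed as log-two fold change relative to solvent controls, is given from duplicates. Crude K562 extract in PBS pH 7.4 with 1 mM MgCl2, at 1 mg/mL protein, was treated with 10 μM compound for 30 min and heated in aliquots for 3 min across 48°C-58°C. After pooling, adjustment to 0.5% NP-40 at 4°C and centrifugation at 21,000xg for 90 min, supernatant protein was measured by TMTpro 16plex LC-MS/MS with channel sums equalised.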
# pictilisib = compound: CS(=O)(=O)N1CCN(Cc2cc3nc(-c4cccc5[nH]ncc45)nc(N4CCOCC4)c3s2)CC1 [pictilisib]
# Outline: as §1
# crizotinib = compound: C[C@@H](Oc1cc(-c2cnn(C3CCNCC3)c2)cnc1N)c1c(Cl)ccc(F)c1Cl [crizotinib]
# Outline: as §1
# [1] = compound: C[C@H](C1=CC=C(C=C1)C(=O)NC2=C3C=CNC3=NC=C2)N
# Outline: as §1
# duvelisib = compound: C[C@H](Nc1ncnc2nc[nH]c12)c1cc2cccc(Cl)c2c(=O)n1-c1ccccc1 [duvelisib]
# Outline: as §1
# gandotinib = compound: Cc1cc(Nc2cc(CN3CCOCC3)c3nc(C)c(Cc4ccc(Cl)cc4F)n3n2)n[nH]1 [gandotinib]
# Outline: as §1
# tozasertib = compound: Cc1cc(Nc2cc(N3CCN(C)CC3)nc(Sc3ccc(NC(=O)C4CC4)cc3)n2)n[nH]1 [tozasertib]
# Outline: as §1
# doramapimod = compound: Cc1ccc(-n2nc(C(C)(C)C)cc2NC(=O)Nc2ccc(OCCN3CCOCC3)c3ccccc23)cc1 [doramapimod]
# Outline: as §1
# bafetinib = compound: Cc1ccc(NC(=O)c2ccc(CN3CC[C@H](N(C)C)C3)c(C(F)(F)F)c2)cc1Nc1nccc(-c2cncnc2)n1 [bafetinib]
# Outline: as §1
# [2] = compound: Cc1cccc(CC(=O)N2CCc3c2ccc(-c2cn(C)c4ncnc(N)c24)c3F)n1
# Outline: as §1
Target,log2 fold change (lapatinib),log2 fold change (pictilisib),log2 fold change (crizotinib),log2 fold change [1],log2 fold change (duvelisib),log2 fold change (gandotinib),log2 fold change (tozasertib),log2 fold change (doramapimod),log2 fold change (bafetinib),log2 fold change [2]
CCDC127 (UniProt Q96BQ5),inactive: 0.044,inactive: 0.005,inactive: 0.057,inactive: 0,inactive: 0.076,inactive: 0.11,inactive: 0.089,inactive: 0.074,inactive: -0.091,inactive: 0.082
CCDC85C (UniProt A6NKD9),inactive: 0.118,inactive: -0.002,inactive: 0.02,inactive: -0.076,inactive: 0.082,inactive: 0.145,inactive: 0.082,inactive: -0.132,inactive: -0.036,inactive: 0.032
CCDC124 (UniProt Q96CT7),inactive: -0.012,inactive: -0.002,inactive: 0.037,inactive: 0.07,inactive: -0.003,inactive: -0.017,inactive: 0.001,inactive: 0.017,inactive: 0.054,inactive: -0.045
CD2AP (UniProt Q9Y5K6),inactive: 0.003,inactive: 0.019,inactive: 0.031,inactive: -0.016,inactive: 0.008,inactive: 0.046,inactive: -0.007,inactive: -0.035,inactive: -0.02,inactive: -0.024
CD3EAP isoform 2 (UniProt O15446),inactive: -0.033,inactive: -0.001,inactive: -0.009,inactive: -0.106,inactive: 0.07,inactive: 0.043,inactive: -0.029,inactive: -0.036,inactive: -0.002,inactive: 0.024
CCSMST1 (UniProt Q4G0I0),inactive: -0.04,inactive: -0.058,inactive: -0.034,inactive: -0.1,inactive: -0.046,inactive: 0.001,inactive: -0.046,inactive: 0.046,inactive: -0.007,inactive: 0.02
CAT (UniProt P04040),inactive: -0.036,inactive: -0.032,inactive: 0.009,inactive: 0.001,inactive: 0.019,inactive: 0.031,inactive: -0.019,inactive: -0.003,inactive: 0.013,inactive: -0.011
CCDC50 isoform 2 (UniProt Q8IVM0),inactive: -0.022,inactive: 0.01,inactive: 0.033,inactive: -0.014,inactive: 0.003,inactive: 0.025,inactive: 0.065,inactive: -0.003,inactive: -0.026,inactive: -0.02
CCDC32 isoform 2 (UniProt Q9BV29),inactive: 0.04,inactive: 0.02,inactive: -0.021,inactive: -0.195,inactive: 0.024,inactive: 0.025,inactive: 0.062,inactive: 0.007,inactive: -0.087,inactive: 0.085
CCPG1 isoform 5 (UniProt Q9ULG6),inactive: 0.114,inactive: -0.038,inactive: 0.006,inactive: -0.036,inactive: 0.006,inactive: -0.089,inactive: -0.021,inactive: 0.036,inactive: 0.035,inactive: 0.108
CCAR2 (UniProt Q8N163),inactive: 0.002,inactive: -0.061,inactive: -0.067,inactive: -0.009,inactive: -0.015,inactive: 0.058,inactive: 0.026,inactive: 0.022,inactive: -0.011,inactive: 0.06
CD46 isoform 2 (UniProt P15529),inactive: 0.002,inactive: -0.005,inactive: -0.025,inactive: -0.01,inactive: -0.08,inactive: 0.086,inactive: -0.034,inactive: 0.063,inactive: 0.124,inactive: -0.003
CASP8 isoform 9 (UniProt Q14790),inactive: 0.024,inactive: -0.055,inactive: 0.063,inactive: 0.042,inactive: -0.015,inactive: -0.082,inactive: 0.094,inactive: -0.029,inactive: -0.077,inactive: -0.059
CBFB (UniProt Q13951),inactive: -0.016,inactive: -0.073,inactive: 0.021,inactive: 0.033,inactive: -0.01,inactive: -0.082,inactive: 0.054,inactive: 0.006,inactive: 0.05,inactive: 0.016
CCDC137 (UniProt Q6PK04),inactive: -0.029,inactive: 0.159,inactive: 0.057,inactive: -0.003,inactive: 0.012,inactive: 0.045,inactive: -0.028,inactive: -0.02,inactive: -0.015,inactive: 0.012
CCDC13 (UniProt Q8IYE1),inactive: -0.054,inactive: -0.261,inactive: -0.654,inactive: -0.001,inactive: 0.153,inactive: -0.18,inactive: -0.121,inactive: -0.22,inactive: -0.137,inactive: 0.239
CD63 (UniProt P08962),inactive: 0.006,inactive: -0.256,inactive: 0.036,active: -0.415,inactive: 0.025,inactive: 0.209,inactive: 0.013,inactive: 0.077,inactive: -0.08,inactive: 0.074
CASKIN2 (UniProt Q8WXE0),inactive: 0,inactive: -0.028,inactive: -0.025,inactive: -0.064,inactive: -0.037,inactive: -0.012,inactive: 0.004,inactive: 0.042,inactive: -0.076,inactive: 0.007
CCDC93 (UniProt Q567U6),inactive: -0.008,inactive: -0.059,inactive: 0.016,inactive: -0.022,inactive: 0.016,inactive: 0.018,inactive: -0.009,inactive: -0.017,inactive: -0.03,inactive: 0.099
CCDC28A (UniProt Q8IWP9),inactive: -0.008,inactive: -0.057,inactive: 0.047,inactive: 0.017,inactive: -0.005,inactive: 0.058,inactive: 0.056,inactive: 0.024,inactive: 0.043,inactive: 0
CC2D1B isoform 2 (UniProt Q5T0F9),inactive: 0.017,inactive: -0.031,inactive: -0.03,inactive: -0.005,inactive: -0.014,inactive: 0.023,inactive: -0.026,inactive: 0.028,inactive: -0.021,inactive: -0.009
CARD8 isoform 5 (UniProt Q9Y2G2),inactive: -0.012,inactive: 0.043,inactive: -0.014,inactive: -0.05,inactive: 0.052,inactive: 0.173,inactive: -0.009,inactive: -0.006,inactive: -0.067,inactive: 0.12
CARM1 (UniProt Q86X55),inactive: -0.041,inactive: -0.007,inactive: 0.005,inactive: -0.052,inactive: -0.004,inactive: 0.014,inactive: -0.016,inactive: 0.069,inactive: -0.055,inactive: 0.02
CBR1 (UniProt P16152),inactive: 0.023,inactive: -0.027,inactive: 0.043,inactive: -0.082,inactive: -0.037,inactive: 0.001,inactive: 0.003,inactive: -0.044,inactive: 0.034,inactive: 0.032
CBS (UniProt P35520),inactive: 0.014,inactive: 0.003,inactive: 0.029,inactive: -0.034,inactive: 0,inactive: -0.014,inactive: 0.013,inactive: -0.018,inactive: 0.031,inactive: 0.002
CBX4 (UniProt O00257),inactive: 0.013,inactive: -0.247,inactive: -0.055,inactive: 0.123,inactive: 0.038,inactive: 0.04,inactive: -0.119,inactive: 0.064,inactive: -0.269,inactive: 0.059
CCNA2 (UniProt P20248),inactive: -0.004,inactive: -0.029,inactive: -0.035,inactive: -0.092,inactive: 0.019,inactive: 0.091,inactive: -0.073,inactive: 0.059,inactive: 0.027,inactive: 0.049
CCNK isoform 4 (UniProt O75909),inactive: 0.001,inactive: 0.013,inactive: -0.008,active: -0.213,inactive: 0.044,inactive: 0.161,inactive: -0.023,inactive: 0.113,inactive: -0.051,inactive: 0.109
CCDC12 (UniProt Q8WUD4),inactive: 0.03,inactive: 0.053,inactive: 0.019,inactive: 0.101,inactive: 0.008,inactive: 0.008,inactive: 0.001,inactive: -0.011,inactive: 0.075,inactive: -0.04
CCT7 (UniProt Q99832),inactive: 0.005,inactive: 0.002,inactive: 0.02,inactive: 0.012,inactive: 0.031,inactive: -0.021,inactive: 0.009,inactive: 0.037,inactive: 0.065,inactive: -0.03

# An excerpt from above, showing only log2 fold change (tozasertib), log2 fold change (doramapimod) and log2 fold change (pictilisib).
Target	log2 fold change (tozasertib)	log2 fold change (doramapimod)	log2 fold change (pictilisib)
CBFB (UniProt Q13951)	inactive: 0.054	inactive: 0.006	inactive: -0.073
CCDC12 (UniProt Q8WUD4)	inactive: 0.001	inactive: -0.011	inactive: 0.053
